Experimental data from patent publication US20240117402A1, “METHODS FOR (POLY) PEPTIDE TANDEM LIGATION AND CYCLIZATION” (Nanyang Technological University, priority 2021, published 2024).
The name of at least one read-out is uncertain.

Legend:
VyPAL2 [1] = test: VyPAL2-mediated intermolecular peptide ligation kinetics (HPLC); type: biochemical, Viola yedoensis; details: limiting substrate 50-800 μM, partner peptide constant
Method: (§1) FIG. 3. Kinetic studies on VyPAL2- and butelase 1-catalyzed intermolecular ligations. A) Peptide 1 (SEQ ID NO:7) containing the C-terminal NHV sequence was used at varying concentrations (50 — 800 μM) to react with peptide 2 (SEQ ID NO:8) at constant concentration (1 mM); B) Peptide 4 (SEQ ID NO:9) at a constant concentration (1.5 mM) was reacted with the GF-peptide 5 (SEQ ID NO:10) at varying concentrations (50-800 μM). C) Peptide 2 at a constant concentration (1.5 mM) was reacted with the -NGF peptide 7 (SEQ ID NO:11) at varying concentrations (50-800 μM). The ligation product 3 or 6 was confirmed by ESI-MS. The reaction rates were calculated from the consumption of the limiting substrate 1, 5 or 7. Initial rate (V0) at different concentrations of the limiting substrate were used for Michaelis-Menten curve plotting. For each kinetic calculation, a lineweaver-Burk plot was also used to confirm the analysis.
(§2) PAL enzymes have been used extensively for protein single-site labeling and macrocyclization. […] To determine the differences quantitatively, firstly the kinetics of VyPAL2 and butelase-1 toward peptide 1 or 7 which has a C-terminal NHV or NGF tripeptide motif respectively were studied (Table 1). […] Reverse-phase analytical HPLC was used to monitor and quantify the ligation reaction. […]

butelase-1 [2] = test: Butelase-1-mediated intermolecular peptide ligation kinetics (HPLC); type: biochemical; details: limiting substrate 50-800 μM, partner peptide constant
Method: as §1, §2

OaAEP1b = test: OaAEP1b-catalyzed peptide cyclization (substrate screen, pH scan, kinetics); type: biochemical
Method: (§3) FIG. 9. Screening of P1′-Asp peptides for cyclization by A) VyPAL2, B) butelase-1 and C) OaAEP1b. Quantitative summary of reaction yields of the reaction mixtures. For each reaction, 25 nM of the enzyme and 5 μM of the peptide substrate (21a-21i) were mixed and reacted at pH 4.5, 25° C. for 60 min. The positive control peptide 21j was performed at the same conditions except at pH 7.4. Average yields and SDs were calculated from experiments performed in triplicate. The amino acid sequence of the peptides used are set forth in SEQ ID Nos. 15-24.
(§4) FIG. 10. Ligation activity of three different ligases under different pH and substrate. Cyclization activity of A) VyPAL2, B) Butelase-1 or C) OaAEP1b towards substrate 21e-DSL and 21j-NGL; Fold difference was calculated using the cyclization rate of 21j-NGL divided by that of 21e-DSL. All the results were the average reaction rate at different pH in triplicate experiments based on MALDI-TOF analysis. Light grey text in the “Fold difference” axis marks to the maximum fold difference.
FIG. 11. […]
(§5) PALs recognize a tripeptide motif Asx-P1′-P2′ in the acyl donor substrate for their catalyzed ligation reactions. […] Previous studies have determined Leu as a preferred P2′ residue. […] Meanwhile, the P1′ substrate specificities of the two other ligases - Butelase-1 and OaAEP1b - were also evaluated by using the same substrates 21a-21j. […]

VyPAL2 [3] = test: VyPAL2-catalyzed peptide cyclization (substrate screen, pH scan, kinetics); type: biochemical, Viola yedoensis
Method: as §3, §4
(§6) FIG. 11. Enzymatic activity of three different ligases on the cyclization reaction of P1-Asp peptide 21e-DSL or 21a-DGL and P1-Asn-peptide 21j-NGL. A) Scheme of PAL-mediated P1-Asp peptide cyclization; B) Enzymatic kinetics of VyPAL2 in cyclizing 21e-DSL at pH 4.5; C) Enzymatic kinetics of VyPAL2 in cyclizing 21e-DSL at pH 7.0; D) Enzymatic kinetics of OaAEP1b in cyclizing 21a-DGL at pH 5.5; E) Enzymatic kinetics of Butelase-1 in cyclizing 21e-DSL at pH 4.5. F) Scheme of PAL-mediated cyclization of peptide 21j-NGL; G). Enzymatic kinetics of butelase-1 in cyclizing […] at pH 4.5; H)
Enzymatic kinetics of VyPAL2 in cyclizing 21j-NSL at pH 4.5; I) Enzymatic kinetics of butelase-1 in cyclizing 21j-NSL at pH 7.4; J) Enzymatic kinetics of OaAEP1b in cyclizing 21j-NSL at pH 7.0. Sequences of peptides used are set forth in SEQ ID Nos. 15, 19, 24.
PALs recognize a tripeptide motif Asx-P1′-P2′ in the acyl donor substrate for their catalyzed ligation reactions. Because the formation of the acyl-enzyme thioester intermediate is the rate-limiting step, the leaving group P1′-P2′ also plays an important role in determining the catalytic kinetics of a particular 40 PAL-mediated reaction. Previous studies have determined Leu as a preferred P2′ residue. To identify the most favorable P1′ residues for PAL-catalyzed Asp-ligation, a panel of peptides (peptide 21a-21j) with C-terminal DXL and N-terminal GI motifs was synthesized and cyclization reactions performed. Peptide 21j with a C-terminal NGL, a P1-Asn peptide favored by VyPAL2, was used for comparison with the P1-Asp peptides 21a-21i. […] Meanwhile, the P1′ substrate specificities of the two other ligases - Butelase-1 and OaAEP1b - were also evaluated by using the same substrates 21a-21j.
scanning experiment using the two peptides 21e and 21j was performed. Cyclization reactions were conducted by mixing 5 μM of peptide 21e or 50 μM of 21j with 25 nM of VyPAL2 over a pH range of 4.0 to 7.4. Results confirmed that the optimum pH for the cyclization of the P1-Asn peptide 21j was 6.5-7.4. But for the P1-Asp peptide 21e (which has the C-terminal DSL tripeptide), the optimum pH was 4.0-4.5.
It is worth noting that, at pH 7.4, VyPAL2 processed peptide 21j for cyclization at a rate that is >1000 folds faster than processing peptide 21e (FIG. 10). This enormous difference of reactivity essentially established the orthogonality for ligation at Asn in the presence of aspartyl bonds.

butelase-1 [4] = test: Butelase-1-catalyzed peptide cyclization (substrate screen, pH scan, kinetics); type: biochemical; details: Butelase-1, cyclization
Method: as §3, §4
as §6, with “H) […]” for “H)”
as §5

| Substance | kcat/Km (VyPAL2 [1]) [M^−1S^−1] | kcat/Km (butelase-1 [2]) [M^−1S^−1] | kcat/Km (VyPAL2 [3]; pH 4.5) | kcat/Km (butelase-1 [4]; pH 4.5) | other results |
| --- | --- | --- | --- | --- | --- |
| Ac-KKLAVINGF (N-terminal acetyl) [Peptide 7] | 7219 ± 513 | 2652 ± 218 |  |  |  |
| GFGGIKA [Peptide 5] | 19559 ± 164 | 4256 ± 52 |  |  |  |
| GISTKSIPPISYRDGL [Peptide 21a] |  |  |  |  | kcat/Km (OaAEP1b; pH 5.5): 172,381 ± 9,250 M^−1s^−1 |
| GISTKSIPPISYRDSL [Peptide 21e] |  |  | 10,916 ± 195 M^−1s^−1 | 7,206 ± 489 M^−1s^−1 | kcat/Km (VyPAL2 [3]; pH 7.0): ~847 ± 123 M⁻¹ s⁻¹; kcat/Km (VyPAL2 [3]; pH 7.0, listed as 1e-DSL): 752 ± 62 M⁻¹ s⁻¹ |
| GISTKSIPPISYRNGL [Peptide 21j] |  |  | 66,977 ± 3,234 M^−1s^−1 | 47,137 ± 3,737 M^−1s^−1 | kcat/Km (VyPAL2 [3]; pH 7.4): 214445 ± 3898 M⁻¹ s⁻¹; kcat/Km (VyPAL2 [3]; pH 7.4, listed as 1j-NGL): 214,445 ± 3,898 M^−1s^−1; kcat/Km (butelase-1 [4]; pH 7.4): 714,219 ± 5,389 M^−1s^−1; kcat/Km (OaAEP1b; pH 7.0): 210,526 ± 8,256 M^−1s^−1 |
